# According to PubChem BioAssay (NCATS):
# Inconclusive means that the source gave no clear call. Such entries were picked first, then a sample of the others. Potencies beside an inconclusive call are fits to weak or partial responses and may not hold up. Activity calls are given as the source filed them. Calls come from the whole dose curve; as a rule, active = well fitted cell-killing curve with a large enough effect; inconclusive = small, poorly fitted or top-dose-only effect; inactive = flat fitted curve, though single readings scatter.
# Assay: Cell Viability - LYMP2-015 (AID 971); note: nearly all actives have a fitted effect of over 55% in size;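 for activity change, negative = lower viability: 0% = DMSO only and full effect = 92 µM tetraoctylammonium bromide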
# Details: LYMP2-015 lymphoblastoid cell viability; series mostly up to 92.2 µM; activity change, negative = lower viability: at the top concentration
# Description: NIH Chemical Genomics Center [NCGC]
# NIH Molecular Libraries Screening Centers Network [MLSCN]
# National Institutes of Environmental Health Sciences [NIEHS]
# National Toxicology Program [NTP]
# We have developed a 1536-well cell-based assay for quantitative high throughput screening (qHTS) against a number of cell lines to determine in vitro cytotoxicity of small molecules. This particular assay uses a human lymphoblastoid cell line (LYMP2-015) purchased from Coriell Institute for Medical Research.
# NCGC Assay Protocol Summary:
# The CellTiter-Glo luminescent cell viability assay (Promega) is a homogeneous method to measure the number of viable cells in culture. The end point readout of this assay is based on quantitation of intracellular ATP, an indicator of metabolic activity, using the luciferase reaction. Luciferase catalyzes the oxidation of beetle Luciferin to oxyluciferin and light in the presence of ATP. The luminescent signal is proportional to amount of ATP present.
# Using the CellTiter-Glo luminescent cell viability assay, the amount of cellular ATP was measured in the lymphoblastoid cell line with complete culture medium following compound treatment for 24 hours. The assay was performed in opaque white Kalypsys 1536-well plates. In the screen, tetraoctylammonium bromide was used as positive control. Library compounds were measured for their ability to cause acute toxicity in the cell line, as reflected by a decrease in intracellular ATP levels, in a concentration-dependent manner. […] AC50 values were determined from concentration-response data modeled with the standard Hill equation.
# qHTS protocol for CellTiter Glo lymphoblastoid cellular assay
# [Step] [Parameter] [Value] [Description]
# 1. Reagent; 5 uL; 2500 lymphoblastoid cells/well
# 2. Time; 5 hr; 37 C incubation
# 4. Controls; 23 nL; Tetraoctylammonium bromide 6.4pM to 92 uM
# 5. Time; 24 hr; 37 C incubation
# 6. Reagent; 5 uL; CellTiter Glo reagent
# 7. Time; 30 min; Room Temperature
# 8. Detection; Luminescence; Viewlux plate reader
# Keywords: cell viability, cytotoxicity, lymphoblastoid cell line, luminescence, NTPHTS, NTPHTS_NCGC, NIEHS, DSSTox, MLSMR, MLSCN, NIH Roadmap, qHTS, NCGC
# Potency is the fitted concentration of half-maximal effect.
Structure (SMILES),Potency,"activity change, negative = lower viability"
O=[N+]([O-])c1cccc(CCl)c1,"inconclusive: 50.1 µM [cytotoxic, partial curve, poor fit]",
CCCCCCCCCc1ccc(O)cc1,"inconclusive: 50.1 µM [cytotoxic, partial curve, poor fit]",
Nc1ccc([N+](=O)[O-])cc1N,,inactive: -16.2%
C[C@H]1CCCC(=O)CCC/C=C/c2cc(O)cc(O)c2C(=O)O1,"inconclusive: 25.1 µM [cytotoxic, partial curve, poor fit]",
COC(=O)C(c1ccccc1)C1CCCCN1 (stereo unspecified),"inconclusive: 15.8 µM [cytotoxic, partial curve, poor fit]",
O=[N+]([O-])c1ccccc1CCl,"inconclusive: 79.4 µM [cytotoxic, single point]",
ClC1=C(Cl)C2(Cl)C3C4CC(C5OC45)C3C1(Cl)C2(Cl)Cl (stereo unspecified),active: 39.8 µM,
S=C=S,,inactive: -2.96%
C=CC(=O)OCCO,"inconclusive: 50.1 µM [cytotoxic, partial curve, poor fit]",
N#CC(Br)Br,"inconclusive: 50.1 µM [cytotoxic, partial curve, poor fit]",
CCCCOC(=O)c1ccccc1C(=O)OCCCC,,inactive: -14.3%
C=CC(=O)OCC(CO)(COC(=O)C=C)COC(=O)C=C,active: 5.01 µM,
O=C1C=CC(=O)C=C1,active: 31.6 µM,
Oc1c(Cl)c(Cl)c(Cl)c(Cl)c1Cl,,inactive: -10.2%
CN1CSC(=S)N(C)C1,active: 31.6 µM,
CCOCN(C(=O)CCl)c1c(C)cccc1CC,"inconclusive: 50.1 µM [cytotoxic, partial curve, poor fit]",
C(CCOCC1CO1)COCC1CO1 (stereo unspecified),,inactive: -20.2%
O=[N+]([O-])c1cc(C(F)(F)F)cc([N+](=O)[O-])c1Cl,active: 31.6 µM,

Structure (SMILES),Potency,"activity change, negative = lower viability"
CC(=O)Oc1ccccc1C(=O)Nc1ncc([N+](=O)[O-])s1,"inconclusive: 39.8 µM [cytotoxic, partial curve]",
O=c1[nH]cc(F)c(=O)[nH]1,"inconclusive: 20 µM [cytotoxic, partial curve, poor fit]",
ClC1=C(Cl)C2(Cl)C3C4C=CC(C4)C3C1(Cl)C2(Cl)Cl (stereo unspecified),"inconclusive: 39.8 µM [cytotoxic, partial curve, poor fit]",
C(=NC1CCCCC1)=NC1CCCCC1,"inconclusive: 50.1 µM [cytotoxic, partial curve, poor fit]",
Oc1ccc(Cl)cc1Sc1cc(Cl)ccc1O,"inconclusive: 50.1 µM [cytotoxic, partial curve, poor fit]",
O=C1C2(Cl)C3(Cl)C4(Cl)C(Cl)(Cl)C5(Cl)C3(Cl)C1(Cl)C5(Cl)C24Cl (stereo unspecified),"inconclusive: 50.1 µM [cytotoxic, partial curve, poor fit]",
ClC1=C(Cl)C(Cl)(Cl)C(Cl)=C1Cl,active: 3.98 µM,
C=CC(N)=O,"inconclusive: 0.0631 µM [cytotoxic, full curve, poor fit]",
CN(C)c1ccc(N=O)cc1,active: 1 µM,
ClC1=C(Cl)C2(Cl)C3C(Cl)C=CC3C1(Cl)C2(Cl)Cl (stereo unspecified),"inconclusive: 50.1 µM [cytotoxic, partial curve, poor fit]",
O=C(O)CC(O)(CC(=O)O)C(=O)O,"inconclusive: 39.8 µM [cytotoxic, partial curve, poor fit]",
CN(C)c1ccc(N(C)C)cc1,"inconclusive: 50.1 µM [cytotoxic, partial curve, poor fit]",
COC(=O)C1=C(C)NC(C)=C(C(=O)OC)C1c1ccccc1[N+](=O)[O-],"inconclusive: 50.1 µM [cytotoxic, partial curve, poor fit]",
CC/C(=C(\c1ccccc1)c1ccc(OCCN(C)C)cc1)c1ccc(O)cc1,"inconclusive: 50.1 µM [cytotoxic, partial curve, poor fit]",
CN(C)CCC=C1c2ccccc2CCc2ccccc21,active: 31.6 µM,
Nc1cc(Cl)ccc1O,"inconclusive: 39.8 µM [cytotoxic, partial curve, poor fit]",
O=[N+]([O-])c1ccc(F)c([N+](=O)[O-])c1,"inconclusive: 50.1 µM [cytotoxic, partial curve, poor fit]",
Oc1ccccc1O,"inconclusive: 12.6 µM [cytotoxic, partial curve, poor fit]",

# Some of the entries above, set out differently.
Structure (SMILES) | Potency | activity change, negative = lower viability
CC(=O)Oc1ccccc1C(=O)Nc1ncc([N+](=O)[O-])s1 | inconclusive: 39.8 µM [cytotoxic, partial curve] | 
O=c1[nH]cc(F)c(=O)[nH]1 | inconclusive: 20 µM [cytotoxic, partial curve, poor fit] | 
ClC1=C(Cl)C2(Cl)C3C4C=CC(C4)C3C1(Cl)C2(Cl)Cl (stereo unspecified) | inconclusive: 39.8 µM [cytotoxic, partial curve, poor fit] | 
